Reference: PubChem BioAssay AID493014 (National Center for Advancing Translational Sciences (NCATS), 2011)
Out of some 340,000 compounds screened, about 170 (0.05%) were called active. Inconclusive means that the source gave no clear call. Such entries were picked first, then a sample of the others. Calls come from the whole dose curve; as a rule, active = well fitted inhibition curve with a large enough effect in the signal ratio, with a control signal flat (not every such curve was filed as active); inconclusive = small, poorly fitted or top-dose-only effect, or effect the other way, or a change in a side signal; inactive = flat fitted curve, though single readings scatter; the % refers to the signal ratio. Potencies beside an inconclusive call are fits to weak or partial responses and may not hold up.

test: qHTS Assay to Find Inhibitors of Chronic Active B-Cell Receptor Signaling; conditions: ABC-DLBCL IkBa-CBG/CBR reporter, luminescence ratio (green luciferase fused to IkBa over red control in TMD8 lymphoma cells), 4 h; activity change, negative = inhibition: at 46.1 µM (top of the series) unless noted;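 for activity change, negative = inhibition: plate controls were basal doxycycline-induced cells for no effect and cells given 10 µM MG132 for full effect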
In short: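 Doxycycline induced both beetle luciferases in TMD8 lymphoma cells; IKK-driven degradation limits the IkappaBalpha-fused green signal, while red luminescence normalises for cell number and nonspecific effects. Compounds tested up to 46 uM, 4 hrs.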
Potency is the fitted concentration of half-maximal effect.

SMILES | activity change, negative = inhibition | Potency
COc1ccc(N2CCN(C(=O)c3cn(C4CCCC4)c(=O)c4c3c3ccccc3n4C)CC2)cc1 | inactive: -11.9% | –
Cc1cc(C)cc(NC(=S)N(Cc2ccc(Br)cc2)Cc2ccc(C(=O)O)cc2)c1 | inconclusive: 0.605% | –
COC(=O)c1ccc(OCC(O)Cn2cnc3cc(C)c(C)cc32)cc1 (centres undefined) | – | inconclusive: 20 µM [falling, single point]
Cc1ccc(NC(=S)NCc2ccc3c(c2)OCO3)cc1 | inconclusive: -27.4% | –
Cc1cccc([C@@H]2[C@@H]3C(=O)N(Cc4ccccc4)C(=O)[C@@H]3[C@]3(C)C(=O)N(c4ccc(C(F)(F)F)cc4)C(=O)N23)c1 | inconclusive: 11.4% | –
Cc1ccc2[nH]cc(CCNC(=O)CN3C(=O)c4ccccc4C3=O)c2c1 | inactive: 7.33% | –
Cn1c(SCC(=O)c2cc3ccccc3o2)nnc1-c1ccccc1 | – | inconclusive: 3.66 µM [falling, single point]
COc1ccc(NC(=O)CC(c2ccc(F)cc2)c2ccc(OC(C)C)cc2)cc1 (centres undefined) | inconclusive: 3.12% | –
CCO/C(C)=N/n1c2nc3ccccc3nc2c2c(=O)n(C3CCCC3)c(C)nc21 | inactive: 8.04% | –
CCN(CCCNC(=O)CN1C(=O)COc2ccc(S(=O)(=O)N3CCC(C)CC3)cc21)Cc1ccccc1 | inconclusive: -6.03% | –
CCOc1ccccc1NC(=S)NC(=O)C1CC1 | inconclusive: -18.2% | –
C[C@H](NC(=O)c1[nH]cnc1C(=O)Nc1ccccc1)C(=O)OC(C)(C)C | inconclusive: 8.28% | –
CC(OC(=O)c1cc(=O)[nH]c2ccccc12)C(=O)NC1CCCC1 (centres undefined) | inconclusive: -0.268% | –
O=C(Nc1cccnc1Cl)c1cc(-c2ccccc2O)on1 | inconclusive: 395% | –
N#CC(=C1CCCC1)c1nc(-c2ccccc2O)cs1 | inconclusive: -2.98% | –
N#CCSc1nc2[nH]ncc2c(=O)n1-c1ccccc1Br | – | inconclusive: 10 µM [falling, partial curve]
CC(Sc1nnc(-c2ccc(Cl)cc2Cl)n1Cc1ccccc1)C(=O)Nc1nccs1 (centres undefined) | – | inconclusive: 3.55 µM [falling, partial curve, poor fit]
COc1ccc(-c2[nH]c(-c3ccc(C)cc3)nc2SCC(=O)NC2CCCC2)cc1 | inconclusive: -2.26% | –
O=C(N/N=C/c1ccc([N+](=O)[O-])o1)c1ccc(NS(=O)(=O)c2cccs2)cc1 | – | inconclusive: 11.2 µM [falling, single point]
CC1N(C(=O)N2CCOCC2)CCN1S(=O)(=O)c1cccc(C(F)(F)F)c1 (centres undefined) | inconclusive: 1.77% | –
CCc1ccccc1N(CC)C(=O)c1cn(CC)c(=O)c2cc(OC)c(OC)cc12 | inconclusive: -2.83% | –

SMILES | activity change, negative = inhibition | Potency
COc1ccccc1C(=O)N/N=C/c1c[nH]c2ccccc12 | inconclusive: -29.6% | –
Cc1nnc(SCC(=O)Nc2ccc(Oc3ccccc3)cc2)n1N | inactive: -1.86% | –
CC(=O)Nc1ccc(-c2csc(Nc3ccc(Cl)cn3)n2)cc1 | – | inconclusive: 17.8 µM [falling, partial curve]
Cc1ccc2c(c1)nnn2C1CCN(C(=O)Nc2ccccc2C)CC1 | inactive: -9.75% | –
CC(C(=O)O)C1SC(=O)NC1=O (centres undefined) | inconclusive: 19.5% | –
Cc1ccc(-c2noc(CSc3ccccc3)n2)cc1 | – | inconclusive: 25.9 µM [falling, single point]
CCN(CC)c1ccc(C=Nc2cccc(S(=O)(=O)N3CCOCC3)c2)c(O)c1 | inactive: 1.77% | –
Cc1ccc(-c2nc(CSCC(=O)Nc3cc(C)on3)c(C)o2)cc1 | inconclusive: -11.1% | –
Cc1onc(-c2c(Cl)cccc2Cl)c1-c1nnc(-c2ccc(Cl)cc2)o1 | inactive: 7.93% | –
O=S(=O)(NC1CCCCC1Oc1ccccc1)c1ccccc1 (centres undefined) | inactive: 0.435% | –
Cc1ccc(OCc2nc(-c3cccnc3)no2)cc1C | inconclusive: -2.15% | –
Cn1/c(=N\NC(=O)c2ccccc2Cl)sc2ccccc21 | – | inconclusive: 28.2 µM [falling, single point]
COc1cccc(OC)c1C(=O)OCC(=O)N(C)c1ccccc1 | inconclusive: 13% | –
COCc1cc(C)nc(SCc2ccc(Cl)cc2)c1C#N | inactive: -0.532% | –
CC(C)CN=Cc1c(O)c([N+](=O)[O-])cc2oc3c(c12)CCCC3 | inconclusive: 20.4% | –
O=C(CSc1nccc(=O)[nH]1)N1CCc2ccccc2C1 | – | inconclusive: 29.1 µM [falling, single point]
O=C(Nc1ccccc1)Nc1ccc(Br)c(Cl)c1 | inconclusive: 4.65% | –
COc1ccccc1C(=O)NCc1ccc(-c2nc3ccccc3s2)cc1 | inconclusive: 7.98% | –
OCCOCCNc1ncnc2c1cnn2-c1ccc(Cl)cc1 | inconclusive: -19.2% | –
O=C(Nc1cccc([N+](=O)[O-])c1)c1ccc2ccccc2c1O | inconclusive: 290% | –
CCC(=O)Nc1cc(NC(=O)CSc2ncc(-c3ccc(F)cc3)n2Cc2ccco2)ccc1C | inconclusive: -27.7% | –

SMILES | activity change, negative = inhibition | Potency
COc1ccccc1-c1c(C)oc2c(CN3CCCC(C)C3)c(O)ccc2c1=O (centres undefined) | inconclusive: 5.71% | –
CN(C)CCCNc1nc(-c2ccc(Cl)cc2)nc2ccccc12 | inconclusive: -11.9% | –
CC1CCC/C(=C(\C#N)c2nc(-c3cc4ccccc4oc3=O)cs2)C1 (centres undefined) | inactive: -1.11% | –
CCN(CC)c1ccc(-c2nn3c(-c4ccccc4OC)nnc3s2)cc1 | – | inconclusive: 3.98 µM [cytotoxic, partial curve]
CC1CCC2(CC1)NC(=O)N(CC(=O)NCc1ccc(Cl)cc1)C2=O (centres undefined) | inconclusive: 0.106% | –
FC(F)(F)COc1nc(N/N=C/c2cccnc2)nc(N2CCCCC2c2ccccn2)n1 (centres undefined) | inconclusive: 15.2% | –
COc1ccc(Cl)c2sc(N3CCN(C(=O)c4ccco4)CC3)nc12 | inconclusive: -1.88% | –
O=C(/C=C/c1ccc(-c2ccccc2)o1)c1ccccc1 | – | inconclusive: 6.51 µM [falling, single point]
CCN(C)Cc1c(C(=O)N2CCc3ccccc3C2)nc2ccc(Cl)cn12 | inconclusive: -9.45% | –
O=C(N/N=C/C(Cl)=C/c1ccc([N+](=O)[O-])cc1)C(=O)Nc1ccccc1C(=O)O | – | inconclusive: 3.98 µM [falling, full curve]
COc1ccc(NC(=O)CC2C(=O)N(Cc3ccccc3)C(=S)N2CCN2CCOCC2)cc1 (centres undefined) | inactive: 2.05% | –
O=C(Cn1ccc(C(F)(F)F)n1)N/N=C/c1cccs1 | inconclusive: 4.24% | –
COCCNC(=O)C(C#N)c1nc2ccccc2nc1N1CCCCCC1 (centres undefined) | inconclusive: 3.99% | –
COc1ccc(N2C(=O)CC(Sc3nc4ccccc4s3)C2=O)cc1OC (centres undefined) | inconclusive: 14% | –
CCOCc1nnc(NC(=O)c2cc(OC)cc(OC)c2)s1 | – | inconclusive: 22.4 µM [falling, single point]
O=C(CCOc1ccccc1)N(Cc1cccnc1)c1nc2c(F)cc(F)cc2s1 | inactive: 24.6% | –
COc1ccccc1N1CCN(c2ccc(NC(=O)c3ccc(C)cc3)cc2C(=O)O)CC1 | inactive: -2.72% | –
CCOC(=O)N1CCN(c2ccc(F)cc2[N+](=O)[O-])CC1 | inconclusive: 3.48% | –
CCc1ccc(/C=N/n2c(C3CCCCC3)n[nH]c2=S)cc1 | inconclusive: 6.82% | –
COc1ccc(OC)c(S(N)(=O)=O)c1 | inconclusive: -1.44% | –
COc1ccc(C2CC(c3ccc(Br)cc3)=NN2C(=O)CSC2=NCCS2)cc1 (centres undefined) | inconclusive: -26.2% | –

Sorted by SMILES length (smallest number first): 5 of the compounds above.
SMILES | activity change, negative = inhibition | Potency
O=C(Cn1ccc(C(F)(F)F)n1)N/N=C/c1cccs1 | inconclusive: 4.24% | –
CCOC(=O)N1CCN(c2ccc(F)cc2[N+](=O)[O-])CC1 | inconclusive: 3.48% | –
CCN(CC)c1ccc(-c2nn3c(-c4ccccc4OC)nnc3s2)cc1 | – | inconclusive: 3.98 µM [cytotoxic, partial curve]
COc1ccccc1-c1c(C)oc2c(CN3CCCC(C)C3)c(O)ccc2c1=O (centres undefined) | inconclusive: 5.71% | –
O=C(N/N=C/C(Cl)=C/c1ccc([N+](=O)[O-])cc1)C(=O)Nc1ccccc1C(=O)O | – | inconclusive: 3.98 µM [falling, full curve]

Continuation:

SMILES | activity change, negative = inhibition | Potency
Clc1ccc(Nc2nc(C3CC3)cs2)cc1 | – | inconclusive: 0.00461 µM [rising, full curve, poor fit]
COCCCN(C(=O)c1ccco1)c1nc(-c2ccc(OC)cc2)cs1 | inactive: -7.7% | –
COC(=O)N/N=C/c1cn(CCOc2ccccc2)c2ccccc12 | inconclusive: 3.8% | –
CCOc1nc(C)ccc1-c1noc(-c2ccccc2OC)n1 | inconclusive: -1.31% | –
COc1ccc(NC(=O)CCNC(=O)Cn2ccc3ccccc3c2=O)c(OC)c1 | inconclusive: -7.37% | –
COc1ccc(-n2c(C)nc3c(cnn3-c3ccc(Cl)cc3)c2=O)cc1 | inactive: -4.72% | –
c1csc(-c2nc(N3CCOCC3)c3ccccc3n2)c1 | inconclusive: -10.2% | –
CCN1CCCC1Cn1cnc2c([nH]c3ccc(OC)cc32)c1=O (centres undefined) | inconclusive: 4.63% | –
CC(NC(=O)COC(=O)c1ccc[nH]c1=O)c1ccccc1 (centres undefined) | inconclusive: 5.29% | –
O=C(NCCc1ccccc1Cl)C1CCC(=O)N(CCCc2ccccc2)C1 (centres undefined) | inconclusive: 4.05% | –
CCn1nc(NC(=O)Cc2ccc(OC)cc2)c2cc3cc(C)ccc3nc21 | inactive: 14.2% | –
Cc1ccc2occ(/C=N/NC(N)=S)c(=O)c2c1 | – | inconclusive: 0.058 µM [rising, full curve]
COc1ccc(C(=O)/C=C/C(=O)N(CC(=O)NC2CCCCC2)Cc2ccc(F)cc2)c(O)c1 | – | inconclusive: 4.47 µM [falling, single point]
S=C(NCc1ccco1)Nc1ccc(Oc2ccc(Cl)cc2)cc1 | inactive: -14.3% | –
COC(=O)C1=NN[C@H](C(=O)OC(C)(C)C)[C@H]1c1ccccc1 | inconclusive: 1.99% | –
c1ccc(COc2ccc(OCCOCCn3cncn3)cc2)cc1 | inconclusive: -26.6% | –
O=C(COc1ccccc1)Nc1ccccc1Cl | – | inconclusive: 17.8 µM [falling, single point]
Cc1ccc2nc3c(c(Nc4ccccc4)c2c1)CCC3 | inconclusive: 8.9% | –
COc1cc(C2CC(=O)c3cnc(NC(=O)COc4ccccc4)nc3C2)cc(OC)c1OC (centres undefined) | inactive: 1.15% | –
CCN(CC)c1ccc(/C=C(\C#N)C(N)=S)cc1 | – | inconclusive: 35.5 µM [falling, single point]
OCCc1ccc(O)c(-n2nc3ccccc3n2)c1 | inactive: 0.127% | –
